Results are given in words; binding and its absence hold for the method and conditions named. Where a sequence is shown, tags or fusion partners need not be part of it.

Chains of the proteins cited; added tags and fusions are not shown. Residues count along the entry.
UniProt Q8VEE4, residues 191-431: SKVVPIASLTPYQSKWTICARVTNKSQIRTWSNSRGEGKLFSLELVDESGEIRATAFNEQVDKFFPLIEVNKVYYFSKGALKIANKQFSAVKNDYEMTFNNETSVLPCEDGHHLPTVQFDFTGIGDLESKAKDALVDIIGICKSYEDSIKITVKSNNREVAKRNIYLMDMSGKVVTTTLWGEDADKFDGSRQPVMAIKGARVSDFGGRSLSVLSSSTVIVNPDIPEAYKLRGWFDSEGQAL

The assay concerns the target T1, GST-tagged mouse Dna2 OB (residues 21–122) (mouse) (UniProt Q6ZQJ5).
T1 sequence: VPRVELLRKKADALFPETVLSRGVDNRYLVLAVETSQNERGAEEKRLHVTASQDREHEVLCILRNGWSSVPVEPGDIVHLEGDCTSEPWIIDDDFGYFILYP
The experiment in a line: pull-down; GST pull-down as a1 with (dT)24 or (dT)8 ssDNA added; concentrations shown in the figure; bound Rpa70 quantified relative to the lane without DNA; both purified.

For “mouse Rpa70AB (residues 191–431) (from UniProt Q8VEE4 191-431) (domain or fragment)”, the binding entry is given as “no binding (condition: with (dT)8 ssDNA)”.

Values taken from article PMC4716839.
